# Experimental data as given in PubChem BioAssay AID1347076 (National Center for Advancing Translational Sciences (NCATS), 2019).
# “And” between values parts separate entries of the source, which are not always exact repeats. Identical values can stand only once. Out of some 400,000 compounds screened, about 13,000 (3.2%) were called active. The shares of active, inactive and inconclusive entries below differ from those in the screen. The call rests on the fitted dose curve; in most records, active means well fitted cell-killing curve with a large enough effect; inconclusive means small, poorly fitted or top-dose-only effect, or effect the other way; inactive means flat fitted curve, though single readings scatter. Where the call is inconclusive, the potency comes from a doubtful curve fit.
# Test: qHTS assay for MDR1-selective chemotherapeutics: Primary screen using the drug-selected MDR subline cells KB-V1; further: nearly all actives have a fitted effect of over 60% in size
# Conditions: KB-V1 MDR cells viability, CellTiter-Glo, 72 h; series mostly up to 46.1 µM
# Outline: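 KB-V1, DMEM (no phenol red) + 10% FBS; cpd pin-transferred, titration series; 72 h, 37 degrees C; CellTiter-Glo, luminescence. Data normalized, curve-fit.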
# Potency means the concentration at half of the fitted maximal effect.
row,Compound,Potency
1,Cc1ccc(-c2csc(-c3c[nH]c4ccccc34)n2)c(C)c1,"inconclusive: 29.1 µM [cytotoxic, single point]"
2,Oc1[nH]c2ccccc2c1N=NC(=S)NCC1CCCO1 (configuration not stated),active: 11.6 µM
3,CCCn1nc(NS(=O)(=O)c2ccccc2)c2cc3cc(C)ccc3nc21,active: 14.6 µM
4,O=C(O)Cn1ccnc1,"inconclusive: 20.6 µM [rising, partial curve]"
5,COc1cccc(-c2noc(C3CCCN(S(=O)(=O)c4cccc(Cl)c4C)C3)n2)c1 (configuration not stated),active: 14.6 µM
6,Clc1ccc(CO/N=C2\CCCc3nonc32)c(Cl)c1,"inconclusive: 16.4 µM [cytotoxic, single point]"
7,COc1ccc(C(=O)Cn2c(=N)n(C)c3ccccc32)cc1,inactive
8,Cc1nc2cc(NC(=O)CS(=O)(=O)c3ccccc3)ccc2s1,"inconclusive: 29.1 µM [cytotoxic, single point]"
9,CCC(c1nc2ccccc2[nH]1)n1c(=O)c(-c2cccs2)nc2ccccc21 (configuration not stated),"inconclusive: 18.4 µM [cytotoxic, partial curve, poor fit]"
10,CC(NC(=O)c1ccc2c(c1)N(Cc1ccc(Cl)cc1)C(=O)c1ccccc1S2(=O)=O)c1ccccc1 (configuration not stated),inactive
11,O=C(CSc1n[nH]c(=O)n1Cc1ccccc1)Nc1ccc(F)c(F)c1F,active: 16.4 µM
12,CCCCCn1c(=N)c(S(=O)(=O)c2ccccc2)cc2c(=O)n3ccccc3nc21,"inconclusive: 4.61 µM [cytotoxic, full curve]"
13,CCc1ccc(CNn2cnnc2SCC(=O)NC(C)(C)C)cc1,"inconclusive: 20.6 µM [cytotoxic, partial curve]"
14,O=C(CNS(=O)(=O)c1c(Cl)cccc1Cl)N1CCCCCC1,inactive
15,O=C(CC1CC2CCC1C2)N1CCN(S(=O)(=O)c2ccc(F)cc2)CC1 (configuration not stated),"inconclusive: 32.6 µM [cytotoxic, single point]"
16,Cn1c(=O)c(C(=O)NNC(=O)c2ccccc2Br)c(O)c2ccccc21,"inconclusive: 2.31 µM [cytotoxic, full curve, poor fit]"
17,CCCCCCOc1ccc(/C(C)=N/NC2=NCCN2)cc1[N+](=O)[O-],inactive
18,CN1CCN(S(=O)(=O)c2ccc(N(C)Cc3ccc(OC(F)F)cc3)c([N+](=O)[O-])c2)CC1,"inconclusive: 18.4 µM [cytotoxic, single point]"
19,COc1ccc(NC(=O)COc2ccc(/C=N/n3c(C)nnc3C)cc2OC)cc1,"inconclusive: 10.3 µM [rising, partial curve, poor fit]"
20,Cc1ccc(C)c(-c2cc(C(=O)Nc3sc(C)c(C)c3C(N)=O)c3ccccc3n2)c1,active: 4.11 µM
21,COc1cccc(CN(CC(=O)NCc2ccc(F)cc2)C(=O)c2ccco2)c1,"inconclusive: 7.31 µM [cytotoxic, partial curve]"
22,Cc1cccc(-n2ccnc2SCC(=O)Nc2nccs2)c1,inactive
23,Cc1ccc(C(=O)Nc2ccccc2C(=O)Nc2ccccn2)cc1Cl,"inconclusive: 29.1 µM [cytotoxic, single point]"
24,CCc1ccc(CSc2nc(-c3ccc(OC)cc3)nc3c2Cc2c(CO)cnc(C)c2O3)cc1,inactive
25,O=S(=O)(NCc1ccccc1)c1ccc(-c2cnc(C3CC3)o2)cc1,"inconclusive: 16.4 µM [cytotoxic, partial curve, poor fit] and active: 14.6 µM"
26,COC(=O)c1cc(C)sc1NC(=O)CN1CCN(C(=O)c2ccco2)CC1,"inconclusive: 4.61 µM [cytotoxic, partial curve]"

row,Compound,Potency
1,CCOC(=O)c1sc(NC(=O)c2nc3ncccn3n2)c(C(=O)OC)c1C,inactive
2,N#CC(C(=S)Nc1ccccc1)c1nc2ccccc2[nH]1 (configuration not stated),"inconclusive: 29.1 µM [cytotoxic, single point]"
3,CCOC(=O)C1=C(C)N=c2s/c(=C/c3ccccc3)c(=O)n2C1c1ccc(OC)c(OC)c1 (configuration not stated),"inconclusive: 16.4 µM [cytotoxic, partial curve]"
4,CC(=O)Nc1cccc(NC(=O)c2c(-c3c(Cl)cccc3Cl)noc2C)c1,"inconclusive: 29.1 µM [cytotoxic, single point]"
5,N#Cc1ccc(Oc2ccc(S(=O)(=O)N3CCCCC3)cn2)cc1,"inconclusive: 20.6 µM [cytotoxic, single point]"
6,O=C(NCC1CCCO1)C(C(=O)c1ccccc1)n1ccccc1=O (configuration not stated),"inconclusive: 29.1 µM [rising, single point]"
7,Cc1ccc2c(CN(C)Cc3ccccc3)cc(=O)oc2c1,inactive
8,Cc1ccc(F)c(CNC(=O)C2CCC(=O)N(CCCN3CCCC3=O)C2)c1F (configuration not stated),"inconclusive: 25.9 µM [rising, single point]"
9,CC(C)Oc1ccc(C(CC(=O)O)NC(=O)Cc2ccccc2)cc1 (configuration not stated),inactive
10,Cc1ccc(-n2c(C)cc(C(=O)Cn3nc(C(=O)O)c4ccccc4c3=O)c2C)cc1,"inconclusive: 29.1 µM [cytotoxic, single point]"
11,Cc1nc2cc(NS(=O)(=O)c3c(C)c(C)cc(C)c3C)ccc2s1,active: 11.2 µM
12,Cc1cccc2c1-c1sc(C(=O)Nc3nccs3)cc1CO2,inactive
13,CCOc1ccc2[nH]c(=O)c(CN(Cc3ccc(F)cc3)C(=O)c3ccco3)cc2c1,active: 14.6 µM
14,CCN(CC)CCCNC(=O)C1CCC(CNS(=O)(=O)c2c(C)cc(C)cc2C)CC1 (configuration not stated),inactive
15,CCOc1ccccc1NC(=O)CCCc1nc2ccccc2c(=O)[nH]1,active: 18.4 µM
16,N#C/C(=C\Nc1ccc2cn[nH]c2c1)c1nc(-c2ccc(Cl)cc2)cs1,"inconclusive: 16.4 µM [cytotoxic, single point]"
17,C=C(C)CN=CC1(C)CCC(C)=CO1 (configuration not stated),inactive
18,CCc1ccc(/C=C/C(=O)c2ccc(S(=O)(=O)N(C)C)cc2)cc1,active: 20.6 µM
19,COc1ccccc1CNC(=O)Cc1csc2nc(-c3ccc(Cl)cc3)cn12,inactive
20,CC(C)CNc1ncnc2oc(-c3ccco3)c(-c3ccco3)c12,"inconclusive: 11.6 µM [cytotoxic, partial curve, poor fit]"
21,OCCC#Cc1ccc(N2C(c3ccsc3)=Cc3ccc(F)cc3C2c2c[nH]c3ccccc23)cc1 (configuration not stated),inactive
22,COc1cccc(CN2CCNC(=O)C2CC(=O)NCCOc2cccnc2)c1 (configuration not stated),inactive
23,COC(=O)c1cccnc1NC(=S)NNC(=O)c1ccccc1,inactive
24,Cc1sc(NC(=O)c2ccco2)c(CN2CCN(c3ccc(F)cc3)CC2)c1C,"inconclusive: 1.64 µM [cytotoxic, full curve]"
25,Cc1cccc(C)c1OCC(=O)N/N=C/c1ccc2c(c1)OCO2,active: 5.17 µM
26,CCN(CC)CCN(C)Cc1nc(C(c2ccccc2)c2ccccc2)no1,inactive

row,Compound,Potency
1,Cc1ccc(S(=O)(=O)N2CCN(C(C)C(=O)Nc3ccccc3-c3ccccc3)CC2)cc1 (configuration not stated),active: 3.66 µM
2,Cc1cccc(C)c1OCC(=O)Nn1c(=O)[nH]c2ccccc2c1=O,"inconclusive: 14.6 µM [cytotoxic, partial curve, poor fit]"
3,CC(C)(C)c1cc(-c2ccccc2)no1,inactive
4,O=[N+]([O-])c1cc(C(F)(F)F)ccc1N1CCN(S(=O)(=O)c2ccc3c(c2)CCCC3)CC1,active: 5.17 µM
5,COc1ccc(-c2[nH]c3ccccc3c2SCCNC(=O)c2ccccc2)cc1,inactive
6,CCCC[C@@H]1CNC(=S)N1CC1CCCCC1,inactive
7,CCN(C(=O)CSc1nc2ccccc2n1CC(=O)Nc1ccccc1C)c1ccccc1,inactive
8,COc1cc2c(cc1OC)C(c1cc(C)ccc1C)CC(=O)N2 (configuration not stated),"inconclusive: 29.1 µM [cytotoxic, single point]"
9,COC(=O)c1sccc1NC(=O)CSc1nnnn1-c1ccccc1C,"inconclusive: 14.6 µM [cytotoxic, single point]"
10,Cc1ccc(OCC(=O)N/N=C/C=C/c2ccco2)cc1,inactive
11,CCOC(=O)c1sc(-c2ccc(C(F)(F)F)cc2)nc1O,inactive
12,COc1cc(/C=N/NC(=O)c2ccc(COc3ccccc3Cl)o2)cc(Br)c1O,inactive
13,O=C(Cn1ccc(C(F)(F)F)n1)N=Nc1c(O)[nH]c2ccccc12,inactive
14,CC(C)Cc1nn2c(=O)cc(COC(=O)c3ccc4c(c3)OCO4)nc2s1,inactive
15,CN(C)c1ccc(C(CNS(=O)(=O)c2ccc(Br)cc2)N2CCCC2)cc1 (configuration not stated),inactive
16,COc1ccc(OCc2n[nH]c(=S)n2N)cc1,"inconclusive: 29.1 µM [rising, single point]"
17,COc1cc(OC)cc(C(=O)Nc2ncn[nH]2)c1,"inconclusive: 29.1 µM [rising, single point]"
18,CCOC(=O)CC/C(=N\NC(N)=O)c1ccc(OC)c(Cl)c1,active: 8.2 µM
19,CN1CCN(S(=O)(=O)c2ccc(Cl)cc2)CC1,inactive
20,COc1ccc(C2NC(=O)NC(c3ccccc3)=C2c2nc3ccccc3s2)cc1 (configuration not stated),"inconclusive: 20.6 µM [cytotoxic, single point]"
21,CCN(CC)C(C(=O)NC1CCCCC1)c1ccc(C)cc1 (configuration not stated),"inconclusive: 8.2 µM [cytotoxic, partial curve, poor fit]"
22,COc1ccc(C(O)(C2CCCCC2)C(CN2CCOCC2)c2ccccc2)cc1 (configuration not stated),"inconclusive: 29.1 µM [cytotoxic, single point]"
23,CCCn1c(NC(=O)C2CCN(S(=O)(=O)c3cccs3)CC2)nc2ccccc21,"inconclusive: 7.31 µM [cytotoxic, partial curve]"
24,N#C/C(=C\c1cccn1S(=O)(=O)c1ccccc1)S(=O)(=O)c1ccc(F)cc1,inactive
25,CC(=O)NC(C)c1nc2ccccc2n1CC(=O)NC(C)CCc1ccccc1 (configuration not stated),inactive
